Some of the results follow.
Assays:
Assay in all cases: log2 fold change, soluble protein after heating vs DMSO (PISA); higher = thermal stabilisation; K562 cells, 10 uM, 30 min; active = over 0.2 and 3.5 SD of the protein, either way, in both replicates (recomputed)
saracatinib = compound: CN1CCN(CCOc2cc(OC3CCOCC3)c3c(Nc4c(Cl)ccc5c4OCO5)ncnc3c2)CC1 [saracatinib]
Summary of the method: (§1)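 Values are thermal stability changes relative to control samples and are taken from duplicates. They are stated as log2 fold changes. Before quantification by TMTpro 16plex LC-MS/MS with equalised channel sums, K562 cells at 2×10^6 cells/mL were treated with 10 μM compound for 30 min, heated in aliquots for 3 min across 48°C-58°C, pooled, extracted in PBS with 0.5% NP-40 at 4°C, and centrifuged at 21,000xg for 90 min to give the soluble supernatant.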

Chains of the proteins cited; added tags and fusions are not shown. Lines headed by an entry give the natural chain unless they say otherwise; changes in a name come on top.
UniProt Q8NBP7, whole entry, looked up: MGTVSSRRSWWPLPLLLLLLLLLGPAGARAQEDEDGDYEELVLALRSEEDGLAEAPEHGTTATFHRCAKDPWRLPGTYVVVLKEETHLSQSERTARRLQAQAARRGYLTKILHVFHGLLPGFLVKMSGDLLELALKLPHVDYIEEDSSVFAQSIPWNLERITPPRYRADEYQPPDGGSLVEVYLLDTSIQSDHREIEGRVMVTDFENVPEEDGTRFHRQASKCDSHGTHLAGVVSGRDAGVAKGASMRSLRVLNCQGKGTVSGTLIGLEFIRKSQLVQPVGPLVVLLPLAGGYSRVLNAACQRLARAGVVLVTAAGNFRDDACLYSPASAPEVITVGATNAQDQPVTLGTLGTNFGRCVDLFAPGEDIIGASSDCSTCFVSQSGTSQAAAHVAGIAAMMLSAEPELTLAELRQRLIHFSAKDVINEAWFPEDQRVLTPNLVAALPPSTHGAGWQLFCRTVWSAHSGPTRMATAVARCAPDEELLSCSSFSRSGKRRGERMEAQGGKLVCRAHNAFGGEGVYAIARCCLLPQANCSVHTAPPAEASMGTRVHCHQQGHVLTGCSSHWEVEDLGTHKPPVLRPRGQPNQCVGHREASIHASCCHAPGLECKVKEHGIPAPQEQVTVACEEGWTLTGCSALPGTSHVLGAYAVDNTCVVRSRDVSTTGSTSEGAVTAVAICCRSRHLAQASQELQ
UniProt P29122: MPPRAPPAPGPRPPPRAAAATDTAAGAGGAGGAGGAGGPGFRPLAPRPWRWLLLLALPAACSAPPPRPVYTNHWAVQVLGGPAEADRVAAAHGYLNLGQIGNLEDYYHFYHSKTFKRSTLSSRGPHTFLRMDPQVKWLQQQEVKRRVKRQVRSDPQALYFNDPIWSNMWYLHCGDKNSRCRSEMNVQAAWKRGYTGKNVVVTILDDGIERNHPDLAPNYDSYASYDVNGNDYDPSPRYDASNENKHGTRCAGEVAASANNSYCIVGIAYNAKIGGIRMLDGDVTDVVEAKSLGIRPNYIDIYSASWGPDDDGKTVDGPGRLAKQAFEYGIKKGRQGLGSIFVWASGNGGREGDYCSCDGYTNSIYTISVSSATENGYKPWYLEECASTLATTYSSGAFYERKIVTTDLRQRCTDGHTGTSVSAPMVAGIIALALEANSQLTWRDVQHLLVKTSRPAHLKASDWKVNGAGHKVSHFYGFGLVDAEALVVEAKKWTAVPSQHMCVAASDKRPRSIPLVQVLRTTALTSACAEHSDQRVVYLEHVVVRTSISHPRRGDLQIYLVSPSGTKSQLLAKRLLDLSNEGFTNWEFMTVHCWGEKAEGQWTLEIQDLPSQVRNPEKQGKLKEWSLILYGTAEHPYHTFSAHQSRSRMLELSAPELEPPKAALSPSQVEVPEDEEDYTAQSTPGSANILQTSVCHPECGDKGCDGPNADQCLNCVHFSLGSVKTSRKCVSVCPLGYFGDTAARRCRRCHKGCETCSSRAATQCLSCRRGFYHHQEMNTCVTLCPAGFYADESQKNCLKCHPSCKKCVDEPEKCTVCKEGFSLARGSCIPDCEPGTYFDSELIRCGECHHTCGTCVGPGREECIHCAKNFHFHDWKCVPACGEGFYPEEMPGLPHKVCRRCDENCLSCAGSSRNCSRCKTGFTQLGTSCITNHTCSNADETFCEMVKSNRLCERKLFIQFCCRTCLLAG
UniProt Q9UKK3: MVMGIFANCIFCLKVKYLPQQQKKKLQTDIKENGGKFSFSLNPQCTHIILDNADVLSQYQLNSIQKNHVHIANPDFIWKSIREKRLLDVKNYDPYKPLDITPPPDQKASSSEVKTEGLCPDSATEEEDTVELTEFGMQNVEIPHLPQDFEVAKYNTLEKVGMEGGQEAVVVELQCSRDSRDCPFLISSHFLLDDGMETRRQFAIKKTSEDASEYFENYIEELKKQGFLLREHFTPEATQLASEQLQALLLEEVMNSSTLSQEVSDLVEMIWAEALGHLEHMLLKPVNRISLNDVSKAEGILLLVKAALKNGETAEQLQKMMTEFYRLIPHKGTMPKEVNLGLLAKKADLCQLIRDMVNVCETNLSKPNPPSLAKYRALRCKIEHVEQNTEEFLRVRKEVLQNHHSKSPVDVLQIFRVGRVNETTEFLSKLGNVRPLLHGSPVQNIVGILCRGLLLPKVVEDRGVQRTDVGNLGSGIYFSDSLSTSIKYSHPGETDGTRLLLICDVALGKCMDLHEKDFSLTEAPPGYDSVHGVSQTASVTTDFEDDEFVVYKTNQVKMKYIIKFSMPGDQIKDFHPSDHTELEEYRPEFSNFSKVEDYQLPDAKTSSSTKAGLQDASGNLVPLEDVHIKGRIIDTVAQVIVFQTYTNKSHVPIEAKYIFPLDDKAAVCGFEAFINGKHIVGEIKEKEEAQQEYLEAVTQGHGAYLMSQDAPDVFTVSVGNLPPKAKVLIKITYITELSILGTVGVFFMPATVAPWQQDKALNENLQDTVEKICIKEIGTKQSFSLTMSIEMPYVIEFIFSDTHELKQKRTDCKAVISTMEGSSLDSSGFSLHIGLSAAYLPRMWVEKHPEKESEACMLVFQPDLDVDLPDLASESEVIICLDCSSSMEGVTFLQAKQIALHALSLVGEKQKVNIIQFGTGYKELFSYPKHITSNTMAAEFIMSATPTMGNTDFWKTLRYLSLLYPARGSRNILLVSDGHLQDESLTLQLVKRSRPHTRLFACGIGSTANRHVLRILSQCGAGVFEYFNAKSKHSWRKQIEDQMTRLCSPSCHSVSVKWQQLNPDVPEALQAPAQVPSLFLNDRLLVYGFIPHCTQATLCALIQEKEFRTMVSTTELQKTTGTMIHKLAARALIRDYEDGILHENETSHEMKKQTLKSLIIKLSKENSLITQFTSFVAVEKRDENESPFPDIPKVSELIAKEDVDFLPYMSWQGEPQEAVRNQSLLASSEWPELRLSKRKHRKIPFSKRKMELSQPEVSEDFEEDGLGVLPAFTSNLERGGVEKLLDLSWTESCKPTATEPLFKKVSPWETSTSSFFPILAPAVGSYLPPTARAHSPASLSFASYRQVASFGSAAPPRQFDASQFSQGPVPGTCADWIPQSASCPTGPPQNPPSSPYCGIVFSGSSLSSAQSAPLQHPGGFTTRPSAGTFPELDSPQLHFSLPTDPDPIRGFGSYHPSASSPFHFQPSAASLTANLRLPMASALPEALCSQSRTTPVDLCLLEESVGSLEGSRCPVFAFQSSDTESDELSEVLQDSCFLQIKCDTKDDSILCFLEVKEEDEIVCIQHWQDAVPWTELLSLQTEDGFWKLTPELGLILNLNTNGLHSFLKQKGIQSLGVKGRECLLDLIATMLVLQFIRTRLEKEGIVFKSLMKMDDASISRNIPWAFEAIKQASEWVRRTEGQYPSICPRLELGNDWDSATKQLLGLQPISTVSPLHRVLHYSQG
UniProt Q08174: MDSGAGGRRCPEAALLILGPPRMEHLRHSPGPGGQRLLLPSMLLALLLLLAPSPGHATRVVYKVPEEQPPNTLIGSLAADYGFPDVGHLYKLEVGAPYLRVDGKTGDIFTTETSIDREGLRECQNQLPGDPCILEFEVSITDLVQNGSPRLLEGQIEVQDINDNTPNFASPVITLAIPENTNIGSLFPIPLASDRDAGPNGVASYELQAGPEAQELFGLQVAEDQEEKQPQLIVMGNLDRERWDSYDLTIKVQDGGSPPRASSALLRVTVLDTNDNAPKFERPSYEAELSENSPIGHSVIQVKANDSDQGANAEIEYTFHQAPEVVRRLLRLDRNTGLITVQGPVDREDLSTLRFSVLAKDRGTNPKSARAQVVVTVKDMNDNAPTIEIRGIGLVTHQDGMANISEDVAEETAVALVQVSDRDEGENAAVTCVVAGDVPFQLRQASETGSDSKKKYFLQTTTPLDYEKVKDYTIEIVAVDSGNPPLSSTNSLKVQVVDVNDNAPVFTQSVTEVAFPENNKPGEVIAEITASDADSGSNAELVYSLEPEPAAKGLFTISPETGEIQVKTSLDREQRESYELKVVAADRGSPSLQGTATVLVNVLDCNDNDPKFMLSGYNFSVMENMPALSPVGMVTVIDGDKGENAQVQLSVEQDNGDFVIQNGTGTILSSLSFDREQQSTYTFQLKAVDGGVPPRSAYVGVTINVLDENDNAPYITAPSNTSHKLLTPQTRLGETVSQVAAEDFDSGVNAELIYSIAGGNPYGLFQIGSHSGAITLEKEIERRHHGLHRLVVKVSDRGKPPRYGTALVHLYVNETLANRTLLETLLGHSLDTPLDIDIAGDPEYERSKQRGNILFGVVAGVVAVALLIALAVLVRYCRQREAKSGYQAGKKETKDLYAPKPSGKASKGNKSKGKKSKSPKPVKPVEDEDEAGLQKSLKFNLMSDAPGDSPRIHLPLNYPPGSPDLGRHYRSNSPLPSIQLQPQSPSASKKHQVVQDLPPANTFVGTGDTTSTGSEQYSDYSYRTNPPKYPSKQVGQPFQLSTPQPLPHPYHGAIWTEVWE
UniProt Q9Y5B6: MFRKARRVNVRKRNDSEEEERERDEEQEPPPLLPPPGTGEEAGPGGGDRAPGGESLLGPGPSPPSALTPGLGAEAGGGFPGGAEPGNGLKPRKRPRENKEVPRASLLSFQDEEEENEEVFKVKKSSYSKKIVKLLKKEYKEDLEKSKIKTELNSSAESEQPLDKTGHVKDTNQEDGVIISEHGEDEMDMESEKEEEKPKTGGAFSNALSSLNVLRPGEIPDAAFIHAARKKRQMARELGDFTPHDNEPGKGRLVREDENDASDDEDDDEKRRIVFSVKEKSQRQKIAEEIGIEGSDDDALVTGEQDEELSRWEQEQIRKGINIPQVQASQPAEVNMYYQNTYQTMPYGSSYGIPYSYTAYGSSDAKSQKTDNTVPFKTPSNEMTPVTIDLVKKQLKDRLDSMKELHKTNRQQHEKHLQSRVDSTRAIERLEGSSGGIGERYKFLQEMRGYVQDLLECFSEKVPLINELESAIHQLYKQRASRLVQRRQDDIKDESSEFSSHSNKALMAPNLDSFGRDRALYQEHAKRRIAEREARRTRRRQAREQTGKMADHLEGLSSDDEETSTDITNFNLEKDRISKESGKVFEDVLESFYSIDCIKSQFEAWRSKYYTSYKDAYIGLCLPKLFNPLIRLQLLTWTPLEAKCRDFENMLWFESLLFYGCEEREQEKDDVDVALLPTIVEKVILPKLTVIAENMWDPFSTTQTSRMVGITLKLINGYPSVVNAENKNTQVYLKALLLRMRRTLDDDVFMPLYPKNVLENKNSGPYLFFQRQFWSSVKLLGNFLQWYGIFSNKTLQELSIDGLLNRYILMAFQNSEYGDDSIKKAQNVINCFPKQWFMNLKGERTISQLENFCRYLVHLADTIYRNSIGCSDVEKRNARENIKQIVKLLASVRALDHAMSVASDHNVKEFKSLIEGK
UniProt Q8N7B6: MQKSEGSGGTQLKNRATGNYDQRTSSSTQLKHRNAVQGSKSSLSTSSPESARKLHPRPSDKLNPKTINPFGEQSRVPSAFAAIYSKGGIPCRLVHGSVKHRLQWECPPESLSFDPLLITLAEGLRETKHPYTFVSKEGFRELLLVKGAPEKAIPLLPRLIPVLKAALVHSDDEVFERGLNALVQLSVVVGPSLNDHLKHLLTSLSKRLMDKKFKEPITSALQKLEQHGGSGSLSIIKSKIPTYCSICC
UniProt Q9NV79: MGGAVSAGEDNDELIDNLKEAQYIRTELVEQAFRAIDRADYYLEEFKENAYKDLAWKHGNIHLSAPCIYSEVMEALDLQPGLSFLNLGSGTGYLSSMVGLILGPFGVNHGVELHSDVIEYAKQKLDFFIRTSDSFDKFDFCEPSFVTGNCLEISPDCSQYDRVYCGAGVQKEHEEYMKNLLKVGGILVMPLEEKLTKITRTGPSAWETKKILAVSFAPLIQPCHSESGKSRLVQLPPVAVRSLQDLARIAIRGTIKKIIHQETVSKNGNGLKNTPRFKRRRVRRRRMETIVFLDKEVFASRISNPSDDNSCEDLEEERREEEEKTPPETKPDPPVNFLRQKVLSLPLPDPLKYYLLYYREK
UniProt Q9BYE7: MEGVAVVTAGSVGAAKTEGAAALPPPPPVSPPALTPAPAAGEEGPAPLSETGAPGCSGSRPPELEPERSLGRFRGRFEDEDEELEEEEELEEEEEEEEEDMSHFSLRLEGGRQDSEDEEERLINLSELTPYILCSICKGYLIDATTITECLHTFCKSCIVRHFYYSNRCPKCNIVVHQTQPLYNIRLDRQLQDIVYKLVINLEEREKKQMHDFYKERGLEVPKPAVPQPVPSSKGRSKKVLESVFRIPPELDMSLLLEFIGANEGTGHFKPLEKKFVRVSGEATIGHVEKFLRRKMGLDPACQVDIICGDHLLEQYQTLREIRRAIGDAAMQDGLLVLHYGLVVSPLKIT

sotrastaurin = compound: CN1CCN(c2nc(C3=C(c4c[nH]c5ccccc45)C(=O)NC3=O)c3ccccc3n2)CC1 [sotrastaurin]
Summary of the method: as §1

Tubastatin A = compound: CN1CCc2c(c3ccccc3n2Cc2ccc(C(=O)NO)cc2)C1 [Tubastatin A]
Summary of the method: as §1

[1] = compound: CNC(=O)C1=CC=CC=C1NC2=NC(=NC=C2Cl)NC3=C(C=C(C=C3)N4CCOCC4)OC
Summary of the method: as §1

defactinib = compound: CNC(=O)c1ccc(Nc2ncc(C(F)(F)F)c(NCc3nccnc3N(C)S(C)(=O)=O)n2)cc1 [defactinib]
Summary of the method: as §1

[2] = compound: CNc1nc(-c2ccc3c(N)n[nH]c3c2)cc(N2C[C@@H](C(=O)NC3CCCCC3)CC[C@H]2C)n1
Summary of the method: as §1

[3] = compound: COC(=O)[C@H](CCSC)NC(=O)C1=C(C=C(C=C1)NC[C@H](CS)N)C2=CC=CC=C2
Summary of the method: as §1

alvocidib = compound: CN1CC[C@H](c2c(O)cc(O)c3c(=O)cc(-c4ccccc4Cl)oc23)[C@H](O)C1 [alvocidib]
Summary of the method: as §1

rucaparib = compound: CNCc1ccc(-c2[nH]c3cc(F)cc4c3c2CCNC4=O)cc1 [rucaparib]
Summary of the method: as §1

encorafenib = compound: COC(=O)N[C@@H](C)CNc1nccc(-c2cn(C(C)C)nc2-c2cc(Cl)cc(NS(C)(=O)=O)c2F)n1 [encorafenib]
Summary of the method: as §1

Measured: log2 fold change

PAFAH2 (UniProt Q99487)
inactive: saracatinib 0.023 | sotrastaurin -0.074 | Tubastatin A -0.196 | [1] -0.179 | defactinib -0.093 | [2] -0.133 | [3] -0.067

PCSK9 (UniProt Q8NBP7)
inactive: sotrastaurin -0.033 | alvocidib 0.141 | Tubastatin A 0.113 | [1] 0.023 | defactinib 0.007 | rucaparib -0.035 | encorafenib 0.09 | [3] 0.039

PCSK6 isoform 7 (UniProt P29122)
inactive: sotrastaurin 0.064 | alvocidib 0.099 | defactinib 0.06 | rucaparib 0.044 | encorafenib 0.414 | [3] 0.05

PARP4 (UniProt Q9UKK3)
inactive: saracatinib -0.059 | sotrastaurin 0.187 | [2] 0.098

PCDH1 isoform 2 (UniProt Q08174)
inactive: sotrastaurin 0.061 | Tubastatin A -0.007

PAXBP1 (UniProt Q9Y5B6)
inactive: Tubastatin A 0.014 | [1] -0.122 | rucaparib -0.049 | encorafenib 0.151

PAFAH1B1 (UniProt I3L3N5)
inactive: saracatinib -0.068 | alvocidib 0.159 | defactinib 0.05 | [2] -0.024 | [3] 0.054

PACRGL (UniProt Q8N7B6)
inactive: sotrastaurin -0.075

PCMTD2 (UniProt Q9NV79)
inactive: Tubastatin A 0.164

PCGF6 (UniProt Q9BYE7)
inactive: saracatinib -0.03 | [2] -0.079
